In PubChem BioAssay AID901 (National Center for Advancing Translational Sciences (NCATS), 2007):
Some of the results follow. Further columns of the screen follow, without active or inactive calls. Most of these compounds were active or inconclusive in the main read-out, so they are no random draw. The note in brackets gives the kind of curve behind each potency; many fits are weak.

assay: qHTS Assay for Identifying the Cell-Membrane Permeable IMPase Inhibitors; settings: CHO-M1 cells, IP1 accumulation, HTRF TR-FRET ratio; measured here: donor channel 620 nm AC50

SMILES | AC50
Cc1oc(CSCC2CCCO2)cc1C(=O)O (configuration not stated) | 3.98 µM [falling, partial curve]
Cc1ccc(CSc2ccc(-c3cccs3)nn2)cc1 | 35.5 µM [rising, single point]
COCCCN1C(=O)c2ccccc2C1C(=O)NC1CCCCCC1 (configuration not stated) | 0.0126 µM [rising, full curve, poor fit]
Brc1cccc(-c2nnc3n2CCC3)c1 | 3.16 µM [rising, single point]
COc1ccc(-c2noc(COc3cc(C)c(Br)c(C)c3)n2)cc1OC | 1.41 µM [falling, full curve, poor fit]
COc1ccccc1/C=C/C=N/NC(=O)c1ccc(=O)n(C)c1 | 3.16 µM [falling, partial curve, poor fit]
COc1ccc(NC(=O)CCN2CCN(CCO)CC2)c(OC)c1 | 0.00501 µM [falling, full curve, poor fit]
CCSc1ccccc1C(=O)Nc1cccnc1 | 0.0316 µM [falling, full curve, poor fit]
Nc1cc2sc(-c3ccc(C(=O)O)cc3)nc2cc1Cl | 14.1 µM [rising, partial curve]
COc1ccc(N(CC(=O)NC2CCCCCC2)S(=O)(=O)c2c(C)nn(C)c2C)cc1 | 0.0631 µM [rising, full curve, poor fit]
O=C(Nc1ccc(Cl)cc1)OCc1ccccn1 | 31.6 µM [falling, single point]
COc1ccc(Cl)cc1NC(=O)C(C)Sc1nncn1C (configuration not stated) | 0.0501 µM [rising, full curve]
COC(=O)C1C(O)=C(C=NC2CCCCC2)C(=O)CC1(C)C (configuration not stated) | 31.6 µM [falling, single point]
CCCCN1C(=O)C2C(C(=O)Nc3cccc(OC)c3)C3C=CC2(O3)C1C(=O)NC1CCCCC1C (configuration not stated) | 0.158 µM [falling, single point]
CCSc1nnc(NC(=O)Cc2ccccc2OC)s1 | 31.6 µM [rising, single point]
CCC(Sc1nc2ccccc2s1)C(=O)Nc1cc(C)on1 (configuration not stated) | 0.794 µM [falling, full curve, poor fit]
Brc1ccc(-c2nn3c(-c4ccco4)nnc3s2)o1 | 20 µM [rising, partial curve, poor fit]
Cc1cc(C)n(-c2ccc(C(=O)Nc3ccccc3N3CCOCC3)cc2)n1 | 3.16 µM [falling, full curve]
CCN1CCN(CC(O)COC(C)C)CC1 (configuration not stated) | 6.31 µM [falling, single point]
COc1cccc(C2=NO[C@@H]3C(=O)N(Cc4ccccc4)C(=O)[C@H]23)c1OC | 10 µM [falling, partial curve]
Cc1ccc(N(CC(=O)Nc2ccc(F)c(Cl)c2)S(=O)(=O)c2c(C)noc2C)cc1 | 0.0158 µM [falling, full curve, poor fit]
COc1ccc(CCNC(=O)CCn2c(=O)[nH]c3cc(OC)c(OC)cc3c2=O)cc1OC | 1.26 µM [falling, partial curve]
CN(C)S(=O)(=O)N(CC(=O)Nc1ccc2ccccc2c1)c1ccccc1 | 1.26 µM [falling, single point]

Arranged by number of heavy atoms (high to low): four of the compounds above
SMILES | AC50
CN(C)S(=O)(=O)N(CC(=O)Nc1ccc2ccccc2c1)c1ccccc1 | 1.26 µM [falling, single point]
COCCCN1C(=O)c2ccccc2C1C(=O)NC1CCCCCC1 (configuration not stated) | 0.0126 µM [rising, full curve, poor fit]
COC(=O)C1C(O)=C(C=NC2CCCCC2)C(=O)CC1(C)C (configuration not stated) | 31.6 µM [falling, single point]
O=C(Nc1ccc(Cl)cc1)OCc1ccccn1 | 31.6 µM [falling, single point]

(list continues)

SMILES | AC50
CN1CCC/C1=C/C=C1\SC(=S)NC1=O | 14.1 µM [falling, single point]
CCCCNCC(=O)Nc1sc(C)c(C)c1C(=O)OCC | 25.1 µM [falling, single point]
COc1cccc(-c2cc(C(=O)Nc3cccnc3)no2)c1 | 0.158 µM [falling, full curve, poor fit]
Cc1nc2ccc(S(=O)(=O)NCC(=O)N3CCOCC3)cc2s1 | 31.6 µM [rising, single point]
COc1cc2c(=O)n(CC3CCCO3)c(=O)n(CC(=O)Nc3ccc(F)cc3F)c2cc1OC (configuration not stated) | 35.5 µM [falling, single point]
COc1ccc2[nH]cc(C(=O)CN3CCCCC3)c2c1 | 0.00501 µM [falling, full curve, poor fit]
COc1ccccc1OCc1ccc(C(=O)NCc2ccco2)o1 | 3.16 µM [rising, full curve, poor fit]
NS(=O)(=O)c1ccc(N2N=C(c3ccccc3)CC2c2ccc(F)cc2)cc1 (configuration not stated) | 6.31 µM [rising, full curve]
CCCCNC(=S)NNC(=O)CCn1nc(C)c(Br)c1C | 3.16 µM [rising, partial curve, poor fit]
COC(=O)c1[nH]c2cccc(OC)c2c1NC(=O)CN1CCOCC1 | 0.0631 µM [rising, full curve, poor fit]
CCn1cc(C(=O)OCC(=O)N(C)C2CCS(=O)(=O)C2)c(=O)c2ccc(C)nc21 (configuration not stated) | 1 µM [falling, partial curve, poor fit]
Cc1cc(C)c(Nc2cc(S(=O)(=O)O)c(N)c3c2C(=O)c2ccccc2C3=O)c(C)c1 | 35.5 µM [falling, single point]
O=C(NCc1cccnc1)c1ccc(CN2CCc3ccccc3C2)cc1 | 0.0224 µM [falling, full curve, poor fit]
COc1ccc(N2CCN(C(c3cccs3)C(C)NC(=O)c3ccco3)CC2)cc1 (configuration not stated) | 1 µM [falling, full curve]
CCOc1cc(CO)c(Br)cc1OCC(=O)O | 31.6 µM [falling, single point]
CC(NC(=O)Nc1ncccn1)(C(F)(F)F)C(F)(F)F | 0.0447 µM [rising, full curve]
Cc1ccc2cccc(NC(=S)NC(=O)c3c(Br)cnn3C)c2n1 | 0.0891 µM [falling, full curve, poor fit]
Cc1ccc(-c2cc(C(=O)N(C)Cc3cnn(C)c3C)c3cc(Br)ccc3n2)cc1 | 11.2 µM [rising, partial curve]
CCOC(=O)/C(N=Nc1c(Br)cc(Br)cc1Br)=C(\C)O | 5.01 µM [falling, partial curve]
O=C(NCC(=O)N(Cc1ccccc1)C(C(=O)NC1CCCCC1)c1ccco1)c1ccco1 (configuration not stated) | 0.794 µM [falling, single point]
CCn1cc(C(=O)O)c(=O)c2cc(F)c(N3CCN(S(=O)(=O)c4ccc(NC(=O)OC)cc4)CC3)cc21 | 35.5 µM [rising, single point]
O=C(COC(=O)c1ccc(S(=O)(=O)N2CCCC2)cc1)NCc1ccc(Cl)cc1 | 31.6 µM [rising, single point]
CC(C)CCn1c(SCCN2CCOCC2)nc2c1c(=O)[nH]c(=O)n2C | 0.02 µM [rising, full curve, poor fit]

SMILES | AC50
CCOC(=O)c1c(N)sc(C(=O)N(C)C)c1CN1CCOCC1 | 0.0158 µM [falling, full curve, poor fit]
COc1ccc(Cn2c(N)c(S(=O)(=O)c3cccs3)c3nc4ccccc4nc32)cc1 | 31.6 µM [rising, single point]
CCN1CCN(CCCNC(=O)c2ccc3c(c2)NC(=O)c2ccccc2S3)CC1 | 1 µM [falling, full curve]
COCCN(C(=O)CC(C)(C)C)c1nnc(-c2cccnc2)s1 | 15.8 µM [falling, single point]
N#C/C(=C\c1ccc(Br)cc1)c1nc(-c2cc3cc(Br)ccc3oc2=O)cs1 | 3.98 µM [falling, single point]
COC(=O)c1cc(OC)c(OC)cc1NC(=O)c1c(-c2ccccc2)noc1C | 35.5 µM [falling, single point]
CCc1ccccc1NC(=O)C1CC(c2ccc(F)cc2)=NO1 (configuration not stated) | 0.01 µM [rising, full curve, poor fit]
CO/N=C/NC(=O)C1=NOC(CNc2ncc(C(F)(F)F)cc2Cl)C1 (configuration not stated) | 0.0282 µM [falling, full curve, poor fit]
CC1CN(Cc2cc(=O)[nH]c(C(C)C)n2)CC(C)O1 (configuration not stated) | 1.26 µM [rising, full curve, poor fit]
Cc1cc2sc(C(=O)O)c(C)c2s1 | 31.6 µM [rising, single point]
CCOC(=O)c1ccc(N=c2sc(C(=O)OC)cc(=O)n2C2CC2)cc1 | 0.0501 µM [falling, full curve]
COc1cccc(C2CN(c3ccc(F)cc3F)N=C2c2cccs2)c1OC (configuration not stated) | 1.26 µM [falling, partial curve]
N#Cc1c(SCC(=O)O)nc(-c2ccccc2)c2c1CCCC2 | 12.6 µM [rising, partial curve, poor fit]
COc1ccc(-c2nc(SCC(=O)NCC3CCCO3)c(-c3ccc(Cl)cc3)[nH]2)cc1 (configuration not stated) | 0.794 µM [falling, full curve]
CC(=O)N1CCN(C(=O)Cn2c(=O)oc3ccccc32)CC1 | 0.501 µM [rising, full curve, poor fit]
CCOC(=O)c1ccc2ncc(C(=O)OCC)c(NCCc3ccc(OC)c(OC)c3)c2c1 | 35.5 µM [rising, single point]
Cc1cc(C(=O)OCC(=O)c2ccc(Br)s2)no1 | 12.6 µM [rising, partial curve]
CN(C)c1nc(-c2ccccc2)cc(C(F)(F)F)c1C#N | 0.0316 µM [rising, full curve, poor fit]
COc1ccc(NC(=O)c2ccco2)cc1NC(=O)c1cccs1 | 31.6 µM [rising, single point]
COc1ccc(Cl)cc1NC(=O)CN(c1cccc(C)c1C)S(C)(=O)=O | 35.5 µM [falling, single point]
CC1(C)C(=O)NC2=C1C(=O)C(=O)c1ccccc12 | 15.8 µM [falling, partial curve]
